# Source: the supplement of paper PMC4683952
# Structures can show the parent of a compound that is named as a salt. The list shows a part of the results. Cut-off read from the data, not from the text of the source: active = 2.5 or more and inactive = the rest. This data set is noisy: repeats of one test often differ as much as different tests do.
# Test system: Lgr5 (MarsCy1-Lgr5-EGFP, U2OS)
# Test: cell-surface Lgr5 expression (SCi1 fluorescence, background-subtracted) relative to WT control (fold of WT control); higher = more Lgr5 at the plasma membrane
# Settings: U2OS MarsCy1-Lgr5-EGFP stable; treatment time: overnight; library: Prestwick; 20 µM
row,Compound,cell-surface Lgr5 expression
1,CC(=O)N(CC(O)CN(C(C)=O)c1c(I)c(C(=O)NCC(O)CO)c(I)c(C(=O)NCC(O)CO)c1I)c1c(I)c(C(=O)NCC(O)CO)c(I)c(C(=O)NCC(O)CO)c1I (stereo not given) [Iodixanol],inactive: 1.59
2,C=CCSCC1Nc2cc(Cl)c(S(N)(=O)=O)cc2S(=O)(=O)N1 (stereo not given) [Althiazide],inactive: 2.37
3,CCN(CC)CCOC(=O)C(c1ccccc1)c1ccccc1 [Adiphenine hydrochloride],inactive: 1.75
4,OC(CCCN1CCCCC1)(c1ccccc1)c1ccccc1 [Diphenidol hydrochloride],inactive: 0.138
5,C[C@]12CC[C@@H]3c4ccc(OS(=O)(=O)O)cc4CC[C@H]3[C@@H]1CCC2=O [Estropipate],inactive: 1.73
6,Cc1ccc(S(=O)(=O)NC(=O)NN2CCCCCC2)cc1 [Tolazamide],inactive: 1.65
7,Cc1ccsc1/C=C/C1=NCCCN1C [Morantel tartrate],inactive: 1.11
8,CN(C)c1ccc(O)c2c1C[C@H]1C[C@H]3[C@H](N(C)C)C(O)=C(C(N)=O)C(=O)[C@@]3(O)C(O)=C1C2=O [Minocycline hydrochloride],inactive: 0.881
9,CCN(CC)CCNc1ccc(CO)c2sc3ccccc3c(=O)c12 [Hycanthone],active: 2.81
10,CNC(C)CCC=C(C)C (stereo not given) [Isometheptene mucate],inactive: 1.51
11,O=C(COc1ccc(Cl)cc1)N1CCN(Cc2ccc3c(c2)OCO3)CC1 [Fipexide hydrochloride],inactive: 0.881
12,CN(Cc1cnc2nc(N)nc(N)c2n1)c1ccc(C(=O)N[C@@H](CCC(=O)O)C(=O)O)cc1 [Methotrexate],inactive: 0.718
13,"CN(Cc1cnc2nc(N)nc(N)c2n1)c1ccc(C(=O)N[C@@H](CCC(=O)O)C(=O)O)cc1 (racemic) [Amethopterin (R,S)]",inactive: 1.13
14,CC1=C(/C=C/C(C)=C/C=C/C(C)=C\C(=O)O)C(C)(C)CCC1 [Isotretinoin],inactive: 1.33
15,CC/C(=C(/CC)c1ccc(O)cc1)c1ccc(O)cc1 [Diethylstilbestrol],inactive: 1.85
16,CSc1ccc2c(c1)N(CCC1CCCCN1C)c1ccccc1S2 (stereo not given) [Thioridazine hydrochloride],inactive: 1.03
17,Cc1cc(-c2ccccc2)nnc1NCCN1CCOCC1 [Minaprine dihydrochloride],inactive: 1.31
18,NC(N)=Nc1nc(CSCC/C(N)=N/S(N)(=O)=O)cs1 [Famotidine],inactive: 1.07
19,CN(C)[C@@H]1C(O)=C(C(N)=O)C(=O)[C@@]2(O)C(O)=C3C(=O)c4c(O)cccc4[C@@](C)(O)[C@H]3[C@H](O)[C@@H]12 [Oxytetracycline dihydrate],inactive: 0.554
20,COc1cc(NC(C)CCCN)c2ncccc2c1 (stereo not given) [Primaquine diphosphate],inactive: 0.785

# Some of the entries so far, with bars between the fields.
row | Compound | cell-surface Lgr5 expression
8 | CN(C)c1ccc(O)c2c1C[C@H]1C[C@H]3[C@H](N(C)C)C(O)=C(C(N)=O)C(=O)[C@@]3(O)C(O)=C1C2=O [Minocycline hydrochloride] | inactive: 0.881
9 | CCN(CC)CCNc1ccc(CO)c2sc3ccccc3c(=O)c12 [Hycanthone] | active: 2.81

# Remaining list, next part:

row,Compound,cell-surface Lgr5 expression
1,CCCCC1(COC(=O)CCC(=O)O)C(=O)N(c2ccccc2)N(c2ccccc2)C1=O [Suxibuzone],inactive: 1.88
2,CCCCNc1c(C(=O)OCC)c(C)nc2c1cnn2CC [Tracazolate hydrochloride],inactive: 0.554
3,O=c1cc(-c2ccc(O)cc2)oc2c([C@@H]3O[C@H](CO)[C@@H](O)[C@H](O)[C@H]3O)c(O)cc(O)c12 [Vitexin],inactive: 1.91
4,COc1cc(-c2ccc(=O)[nH]n2)ccc1OC(F)F [Zardaverine],inactive: 1.01
5,CCOC(=O)NNc1nncc2ccccc12 [Todralazine hydrochloride],inactive: 1.85
6,CCCCN1CCCCC1C(=O)Nc1c(C)cccc1C (stereo not given) [Bupivacaine hydrochloride],inactive: 1.41
7,CC[C@@H](C(=O)[C@@H](C)[C@@H](O)[C@H](C)CCc1ccc(C)c(O)c1C(=O)O)[C@H]1O[C@](CC)([C@H]2CC[C@](O)(CC)[C@H](C)O2)C[C@@H]1C [Lasalocid sodium salt],inactive: 1.79
8,CC(COc1ccccc1)NC(C)C(O)c1ccc(O)cc1 (stereo not given) [Isoxsuprine hydrochloride],inactive: 2.23
9,CC(C)(C)c1ccc(C(O)CCCN2CCC(C(O)(c3ccccc3)c3ccccc3)CC2)cc1 (stereo not given) [Terfenadine],inactive: 0.651
10,CC(=O)[C@H]1CC[C@H]2[C@@H]3CC=C4C[C@@H](O)CC[C@]4(C)[C@H]3CC[C@]12C [Pregnenolone],inactive: 2.13
11,COc1ccc(CC2c3cc(OC)c(OC)cc3CC[N+]2(C)CCC(=O)OCCCCCOC(=O)CC[N+]2(C)CCc3cc(OC)c(OC)cc3C2Cc2ccc(OC)c(OC)c2)cc1OC (stereo not given) [Atracurium besylate],inactive: 0.985
12,"Cc1n[nH]c(=O)[nH]c1=O [Azathymine, 6]",active: 3.94
13,CN(C)CCCN1c2ccccc2Sc2ccc(Cl)cc21 [Chlorpromazine hydrochloride],inactive: 1.37
14,CO[C@H]1C[C@H](O[C@H]2[C@H](C)[C@@H](O[C@@H]3O[C@H](C)C[C@H](N(C)C)[C@H]3O)[C@@H](C)C[C@@]3(CO3)C(=O)[C@H](C)[C@@H](O)[C@@H](C)[C@@H](C)OC(=O)[C@@H]2C)O[C@@H](C)[C@@H]1O [Oleandomycin phosphate],inactive: 0.621
15,Nc1ccc(S(=O)(=O)Nc2ccccn2)cc1 [Sulfapyridine],inactive: 1.79
16,C[N+]1(C)CCC(OC(=O)C(O)(c2ccccc2)C2CCCC2)C1 (stereo not given) [Glycopyrrolate],inactive: 1.78
17,Clc1ccc(CCC(Cn2ccnc2)Sc2c(Cl)cccc2Cl)cc1 (stereo not given) [Butoconazole nitrate],inactive: 0.889
18,N#Cc1ccc(C(c2ccc(C#N)cc2)n2cncn2)cc1 [Letrozole],inactive: 1.47
19,NCc1ccccc1CC(=O)N[C@@H]1C(=O)N2C(C(=O)O)=C(CSc3nnnn3CC(=O)O)CS[C@H]12 [Ceforanide],inactive: 0.822
20,N=C(NCCCCCCNC(=N)NC(=N)Nc1ccc(Cl)cc1)NC(=N)Nc1ccc(Cl)cc1 [Chlorhexidine],inactive: 0.933
